Measurements as given in PubChem BioAssay AID1259415 (National Center for Advancing Translational Sciences (NCATS), 2018).
About 18,000 (4.4%) of roughly 410,000 compounds were called active. This list was built around the results that the source calls inconclusive (neither active nor inactive); the mix of calls is not that of the screen. No stated cut-off is given here; in the data, active means activity change below about -60%; inconclusive means no clear call, values can overlap the other calls; inactive means above about -39%.

Assay: qHTS Assay for inhibitors of the human cytomegalovirus (HCMV)
Conditions: HFF cells, HCMV-luciferase reporter, 72 h; at 57.5 µM; hits give low values
How it was run: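 Inhibition of viral replication was scored as loss of reporter luminescence in HFFs infected with HCMV-luciferase (MOI 1 PFU/cell) for 72 h; compounds tested at 2 doses, normalized to buffer and Salinomycin controls.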
On the % scale 0 is the no-effect control and ±100 the full control effect.

| Structure (SMILES) | activity change, negative = inhibition |
| --- | --- |
| CN(CC/C=C1/c2ccccc2CSc2ccccc21)CCCO | inactive: 2.43% |
| CC#CCN1c2ccccc2[C@]23C[C@@H](C(=O)OC)N(C(=O)C4CCC4)C2=NC(C(=O)OC)=C(C(=O)OC)[C@H]13 | active: -74.8% |
| CC(CN1CCCCC1)OC(=O)c1ccccc1F (centres undefined) | inactive: -10.2% |
| NC(N)=Nc1cc2ccccc2c2ccccc12 | active: -83.4% |
| CC(C)N(C)S(=O)(=O)c1ccc(NC(=O)CSC(=S)N2CCCC2)cc1 | inconclusive: -44.2% |
| O=C(CNC(=O)c1cccc(Br)c1)N/N=C/c1ccc[nH]1 | inconclusive: -60% |
| COC(=O)c1ccccc1NC(=O)c1cc2ccccn2n1 | inactive: 34.7% |
| CCC(C)CN1C(=O)CSCC1(C)C(=O)Nc1ccc2c(c1)OCCO2 (centres undefined) | inactive: 12.2% |
| CC1Cc2cc(S(=O)(=O)CCC(=O)Nc3cccc(F)c3)ccc2N1C(=O)C1CC1 (centres undefined) | inconclusive: -48.2% |
| COC(=O)[C@@]1(Cc2ccc(OC)cc2)[C@H]2c3cc(C(=O)N4CCCC4)n(Cc4ccsc4Br)c3C[C@H]2CN1C(=O)c1ccccc1 | inactive: 1.06% |
| CCCCn1c(N)c(N(CC(C)C)C(=O)COC(=O)C2(c3ccccc3)CC2)c(=O)[nH]c1=O | inconclusive: -41% |
| COc1cc(OC)c(C(=O)NCc2nc(-c3ccccc3)no2)cc1OC | inconclusive: -56.7% |
| Cc1ccc(C(=O)COC(=O)CCc2nc3ccccc3[nH]c2=O)cc1C | inactive: -20% |
| CCCc1cc(=O)[nH]c(SCC(=O)Nc2sc3c(c2C#N)CCC(C)C3)n1 (centres undefined) | active: -61% |
| CCOC(=O)c1ccc(NS(=O)(=O)c2c(N)n(C)c(=O)n(C)c2=O)cc1 | inconclusive: -52.1% |
| CCCS(=O)(=O)c1nc(S(=O)(=O)c2ccc(C)cc2)c(N2CCC(C)CC2)s1 | inconclusive: -41.5% |
| Cc1[nH]c2ccccc2c1C(c1ccccn1)N1CCCC1 (centres undefined) | inactive: -38.6% |
| Cc1oc2c(cc(NS(=O)(=O)c3ccc(Br)cc3)c3ccccc32)c1C(=O)OCc1ccccc1 | inactive: 49.4% |
| CCCOc1ccc(-c2nc(OCC)c3ccccc3n2)cc1 | inactive: 40.4% |
| O=c1nc(N2CCCC2)nc(Nc2ccccc2)[nH]1 | inconclusive: -41.5% |
| COc1ccc(OC)c(NC(=O)c2cc(-c3cc(C)ccc3O)n[nH]2)c1 | inactive: -2.31% |
| CCn1c(CNc2ccc(Cl)cc2)nnc1SCCN1CCCCC1 | active: -106% |

A draw from above in order of molecular weight, high to low:

| Structure (SMILES) | activity change, negative = inhibition |
| --- | --- |
| CCCS(=O)(=O)c1nc(S(=O)(=O)c2ccc(C)cc2)c(N2CCC(C)CC2)s1 | inconclusive: -41.5% |
| CCC(C)CN1C(=O)CSCC1(C)C(=O)Nc1ccc2c(c1)OCCO2 (centres undefined) | inactive: 12.2% |
| CC(CN1CCCCC1)OC(=O)c1ccccc1F (centres undefined) | inactive: -10.2% |

(cont.)

| Structure (SMILES) | activity change, negative = inhibition |
| --- | --- |
| CCOC(=O)c1c(NC(=O)Nc2ccc(F)cc2)sc2c1CCN(C)C2 | inconclusive: -50.1% |
| O=C(CCc1nnc(CCCc2ccccc2)o1)NC(C1CC1)C1CC1 | inactive: 29.1% |
| CN1CCN(CC2(O)CCN(S(=O)(=O)c3ccc(Cl)cc3)CC2)CC1 | active: -68.7% |
| COCCNc1nc2c(S(=O)(=O)c3ccccc3)nnn2c2ccc(Cl)cc12 | inactive: -6.51% |
| CCn1c2ccccc2c2cc(NC(=O)CN(C)CC(=O)Nc3ccc(N4CCOCC4)cc3)ccc21 | inconclusive: -49.8% |
| O=C(OCC(=O)N1CCN(c2ccccc2)CC1)c1ccc2ccccc2n1 | inactive: 52.2% |
| COc1ccc(NC(=O)c2sc3nc(C)c(C(=O)Nc4ccc(C)cc4C)c(-c4sccc4C)c3c2N)cc1 | inactive: -19.7% |
| O=c1c(-c2ccccc2)nc(-c2ccccc2)cn1O | inactive: -7.56% |
| O=c1c2ccccc2ncn1-c1ccc(Cl)cc1[N+](=O)[O-] | inconclusive: -42.9% |
| CCc1ccc(/C=N/NC(=O)c2ccc(OC3CCCC3)cc2)s1 | inconclusive: -57% |
| COc1ccc(Cn2c(SCc3ccc(C(=O)NC4CCCCC4)cc3)nc3cccnc32)cc1 | inactive: 2.23% |
| O=C(NC1CCCC(C(F)(F)F)C1)c1ccc([N+](=O)[O-])o1 (centres undefined) | inconclusive: -42.7% |
| CC(=O)Nc1ccc2nc(SCCOc3ccc(C)cc3)sc2c1 | inconclusive: -57.9% |
| CC(C)(C)N=C1NN=C(c2ccc(Cl)cc2)CS1 | inconclusive: -45.7% |
| O=[N+]([O-])c1ccc(COn2nnc3ccccc32)cc1 | inconclusive: -56.2% |
| COc1cc(C2C3=C(COC3=O)Oc3cc4c(cc32)OCO4)cc(OC)c1O (centres undefined) | active: -79.4% |
| CCOc1ccc2nc3c(cc2c1)CN(CCOC)C(=NCCOC)S3 | active: -61% |
| O=C(Nc1ccc(S(=O)(=O)N2CCCC2)cc1)c1ccc2c(=O)n3c(nc2c1)CCCCC3 | active: -90.2% |
| O=C(Nc1ccc2nc(SCCOc3ccccc3)sc2c1)c1ccco1 | inconclusive: -40.6% |
| O=C(c1ccccc1)c1c(O)cc(-c2ccccc2)oc1=O | inconclusive: -42.7% |
| Cc1ccsc1C(=O)N(c1nc2ccccc2s1)c1c(C)cccc1C | inconclusive: -58.2% |
| CCN1C(=O)C(CC(=O)Nc2ccccc2)S/C1=N\c1ccccn1 (centres undefined) | inconclusive: -43.2% |
